Results as given in publication doi:10.1101/2020.12.13.422562.
These are yes or no findings as the source states them, for the method shown. Binding seen in cells or lysates may run through a third protein. Some binding calls cover weakened binding; strength is not graded here. Tags and fused reporters may be left off the sequences shown.

Biological target: T1, HA epitope-tagged Asc1 (S. cerevisiae) (UniProt P38011)
T1 sequence: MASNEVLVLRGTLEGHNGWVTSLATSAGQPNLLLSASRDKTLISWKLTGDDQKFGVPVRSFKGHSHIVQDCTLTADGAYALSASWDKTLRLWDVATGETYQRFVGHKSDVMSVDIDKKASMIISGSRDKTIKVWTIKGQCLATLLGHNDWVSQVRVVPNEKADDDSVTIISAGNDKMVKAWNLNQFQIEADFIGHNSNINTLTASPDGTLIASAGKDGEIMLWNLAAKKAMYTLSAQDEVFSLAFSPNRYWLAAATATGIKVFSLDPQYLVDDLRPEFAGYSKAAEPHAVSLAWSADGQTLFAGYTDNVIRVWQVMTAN
Experiment: co-IP

B1: FLAG epitope-tagged Scp160 (protein, UniProt P06105 1-1222)
chain: MSEEQTAIDSPPSTVEGSVETVTTIDSPSTTASTIAATAEEHPQLEKKPTPLPSLKDLPSLGSNAAFANVKVSWGPNMKPAVSNSPSPSPSAPSLTTGLGAKRMRSKNIQEAFTLDLQSQLSITKPELSRIVQSVKKNHDVSVESTLSKNARTFLVSGVAANVHEAKRELVKKLTKPINAVIEVPSKCKASIIGSGGRTIREISDAYEVKINVSKEVNENSYDEDMDDTTSNVSLFGDFESVNLAKAKILAIVKEETKNATIKLVVEDEKYLPYIDVSEFASDEGDEEVKVQFYKKSGDIVILGPREKAKATKTSIQDYLKKLASNLDEEKVKIPSKFQFLIDAEELKEKYNVIVTFPSTPDDELVSFVGLRDKVGEAITYARSSSKSYVVESLDISKAHSKNLTHAKNLIMYFTKYSVLKGLEESHPNVKISLPSIQSLPTAETVTIHISAKSDEANDIKAVRKELISFVNNIPPSETLVITDLDYELFGGSIKHCLLASESSVAFVQFGDYYPNDNSILLVALTEDEDFKPSIEEIQASLNKANESLNSLRTKQNNMETKTYEFSEEVQDSLFKPSSATWKLIMEDISEQEGHLQIKLHTPEENQLTVRGDEKAAKAANKIFESILNSPSSKSKMTVNIPANSVARLIGNKGSNLQQIREKFACQIDIPNEENNNASKDKTVEVTLTGLEYNLTHAKKYLAAEAKKWADIITKELIVPVKFHGSLIGPHGTYRNRLQEKYNVFINFPRDNEIVTIRGPSRGVNKAHEELKALLDFEMENGHKMVINVPAEHVPRIIGKNGDNINDIRAEYGVEMDFLQKSTDPKAQETGEVELEITGSRQNIKDAAKRVESIVAEASDFVTEVLKIDHKYHKSIVGSGGHILREIISKAGGEEIRNKSVDIPNADSENKDITVQGPQKFVKKVVEEINKIVKDAENSVTKTIDIPAERKGALIGPGGIVRRQLESEFNINLFVPNKDDPSGKITITGAPENVEKAEKKILNEIIRENFDREVDVPASIYEYVSERGAFIQKLRMDLSVNVRFGNTSKKANKLARAPIEIPLEKVCGSTEGENAEKTKFTIEEVGAPTSSEEGDITMRLTYEPIDLSSILSDGEEKEVTKDTSNDSAKKEEALDTAVKLIKERIAKAPSATYAGYVWGADTRRFNMIVGPGGSNIKKIREAADVIINVPRKSDKVNDVVYIRGTKAGVEKAGEMVLKSLRR
binding: binds weakly
